{
  "source": "BindingDB's records for doi:10.1021/cb500908d",
  "about": "(Technical University of Dortmund, 2015)",
  "target": "T1, Serine/threonine-protein kinase TBK1 (Homo sapiens, UniProt Q9UHD2)",
  "T1 sequence (Q9UHD2 whole entry)": "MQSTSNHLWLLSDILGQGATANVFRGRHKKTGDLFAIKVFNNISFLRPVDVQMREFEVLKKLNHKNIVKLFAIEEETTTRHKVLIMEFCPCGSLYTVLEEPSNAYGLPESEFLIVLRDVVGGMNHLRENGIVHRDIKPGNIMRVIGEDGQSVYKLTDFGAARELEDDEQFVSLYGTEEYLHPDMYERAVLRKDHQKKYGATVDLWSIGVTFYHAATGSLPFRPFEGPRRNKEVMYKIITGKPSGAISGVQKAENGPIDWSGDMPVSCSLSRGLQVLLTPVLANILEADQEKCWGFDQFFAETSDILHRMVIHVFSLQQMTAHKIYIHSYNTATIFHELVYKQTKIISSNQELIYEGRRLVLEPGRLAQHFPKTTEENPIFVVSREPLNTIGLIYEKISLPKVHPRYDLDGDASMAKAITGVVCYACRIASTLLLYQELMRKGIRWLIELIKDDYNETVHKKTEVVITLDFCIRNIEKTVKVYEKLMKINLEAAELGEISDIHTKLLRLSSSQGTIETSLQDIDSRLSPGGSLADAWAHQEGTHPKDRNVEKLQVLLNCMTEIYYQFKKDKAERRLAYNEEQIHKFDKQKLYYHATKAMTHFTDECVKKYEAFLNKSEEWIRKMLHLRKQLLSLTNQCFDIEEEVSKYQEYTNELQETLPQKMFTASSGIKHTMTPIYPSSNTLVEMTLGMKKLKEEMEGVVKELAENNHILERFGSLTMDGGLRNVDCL",
  "experiment": "IC50 determinations for TBK1 were performed with the KinEASE-STK assay from Cisbio according to the manufacturer's instructions. […] After completion of the reaction, an antiphosphoserine/-threonine antibody labeled with europium cryptate and streptavidin labeled with the fluorophore XL665 were added. FRET between europium cryptate and XL665 was measured to quantify the phosphorylation of thesubstrate peptide. ATP concentrations were adjusted to 30 μM while a substrate concentration of 1 μM was used. Kinase and inhibitor were preincubated for 30 min before the reaction was started by addition of ATP and substrate peptide.",
  "data": [
    {"compound": "O=C1NC(=O)C(c2cccc([N+](=O)[O-])c2)=C1Nc1cc(Cl)c(O)c(Cl)c1", "note": "[GSK screening, 35]", "values": [
      {"measurement": "IC50", "result": 532, "unit": "nM"}
    ]}
  ]
}
